## Screening data, single-dose tests

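Growth of Mycobacterium tuberculosis over 4 days (cholesterol / DPPC medium with tyloxapol); the read-out is not stated. Tested at 50 µM. Higher reads as more growth inhibition (inferred: compounds with an IC50 in retests scored well above the rest). Of about 69,000 compounds tested this way, about 370 (0.54%) reached 50% or more in at least one test.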

Values are the deposited “Percent Effect”, in %.
The record does not define 0% and 100%; most values in the screen are far below 50% and negative numbers occur (in some assays of this library far below -100).
Compounds were drawn at random from those tested, without regard to their results.
Two or more numbers in one place are separate tests of the same structure; such repeats can differ widely.

structure | effect
O=C(Cn1cccnc1=O)NCCc1ccc2c(c1)OCCO2 | -25.33%
C=C(C)CN1CCC(NC(=O)Nc2ccc(F)c(C(N)=O)c2)CC1 | 19.84%
Cc1nc(CCCNC(=O)c2cc(F)ccc2O)n[nH]1 | 6.596%
Cc1nc(NCCSc2nnc(C)s2)c2cccnc2n1 | -6.785%
CC(C(=O)N1CCCN(c2ccc(C#N)cc2)CC1)n1cccn1 (stereo unspecified) | 7.315%
CC(NCC1(N(C)C)CCOCC1)c1ccc(Cl)cc1 (stereo unspecified) | 1.715%
[H][C@@]12CN(CC(=O)OCC)C[C@]1([H])OCCN2c1ncc(F)cn1 | 2.061%
O=C(c1ccc2c(c1)CCCC2)N1CCn2ncnc2C1 | 28.9% and 28.6%
[H][C@]1([C@H](O)c2ccc(NC(=O)COC)cc2)COCC(=O)N1CC | -23.99%
CCN1CCN(c2cncc(Cl)n2)CC1 | -25.1%
O=C(c1cc(-c2ccco2)cs1)N1CCCC1 | 47.69%
Cc1noc2ncc(C(=O)N3CCCC3c3cnn(C)c3)cc12 (stereo unspecified) | -1.985%
O=C(Cc1cn2ccccc2n1)N1CCCC(n2cccn2)C1 (stereo unspecified) | -28.8%
CCc1ncncc1C(=O)N1CCCN(Cc2ccc(C)cc2)CC1 | -35.66%
O=S(=O)(NCc1ccccc1)N(Cc1ccccn1)CC1CCCO1 (stereo unspecified) | 16.74%
Cc1cc(C(F)(F)F)nn1C(C)C(=O)Nc1ccc(Cl)cn1 (stereo unspecified) | -4.316%
CC(C)CNc1nccc(-c2cnc3sc(Cl)cn3c2=O)n1 | -19.36%
O=C(CCCNc1ncccn1)N1CCCC(n2ccnc2)C1 (stereo unspecified) | 10.97%
CC(=O)Nc1nc(CN2CCCC2c2cnn(C)c2)cs1 (stereo unspecified) | -7.495%
CCN(CC)CCCNc1nccc(-c2cn(C)nc2C)n1 | -2.213%
Cc1cc2cccc(C(=O)N3CCOC4(CNCCOC4)C3)c2o1 (stereo unspecified) | -28.04% and 6.553%
CC(C)(C)c1cc(NC(=O)CN2CCCC(Cn3cncn3)C2)on1 (stereo unspecified) | -20.16%
CCN(Cc1nonc1C)C(=O)c1cnccn1 | 15.44%
CCN1CCCC(CN(C)c2nccc(-c3ccc(C)nc3C)n2)C1 (stereo unspecified) | -5.739% and 16.13%
O=C(O)c1ccc(C2CCCN(Cc3ccc(-c4cc[nH]n4)o3)C2)cc1 (stereo unspecified) | -37.73%
CCCOc1ccccc1CCCNc1ncnc2oc(C)nc12 | 31.21%
Cn1ncc2c(=O)[nH]c(CN3CCCC3c3cccs3)nc21 (stereo unspecified) | -5.751%
Cc1cc(NC(=O)CN(CC(C)O)c2ccccc2)on1 (stereo unspecified) | 5.258%
CCn1ncc(S(=O)(=O)NC(C)c2cc(OC)ccc2OC)c1C (stereo unspecified) | -9.466%
Cc1ccc(CN(Cc2cc(=O)n3cccc(C)c3n2)C(C)C)o1 | 4.701%
Cc1ccc(CN(Cc2cc(C)no2)C2CC2)cc1 | 15.39%
O=C(O)C(F)(F)F.O=C(O)C(F)(F)F.[H][C@@]12CN(Cc3ccccn3)C[C@H](C(=O)Nc3cccnc3)[C@]1([H])CCO2 | -21.94%
O=C(O)C(F)(F)F.[H][C@@]12CCN(S(=O)(=O)c3cccs3)C[C@]1([H])[C@@H](CN(C)C)OC2 | -18.77%
COc1ccc(CNC(=O)CCN2C[C@@H](C)[C@](O)(C3CC3)C2)cc1 | -8.34%
CCC(O)CN1CCN(C(=O)c2cccc(CC#N)c2)CC1 (stereo unspecified) | -15.98%
CCOC1Sc2nnc(C)n2N=C1c1ccc(F)cc1 (stereo unspecified) | 8.113%
CC(=O)NCc1cc2n(n1)CCN(Cc1ccccc1OC(F)(F)F)C2 | 9.115%
Cc1noc(C(C)C)c1C(=O)NCC1CCN(c2ccccc2)C1 (stereo unspecified) | -7.943%
Cc1nc(C2CCN(C(=O)c3cscn3)CC2)c2sccn12 | 0.9027%
Cn1ccnc1C(=O)N1CCC2(CCN2Cc2ccc(F)cc2)C1.O=C(O)C(F)(F)F (stereo unspecified) | -13.92%
COc1c(C2CCCN2C(=O)c2ccc(C#N)c(C)n2)c(C)nn1C (stereo unspecified) | 6.345%
CC(C)c1csc(C(=O)N2CCCC(Cn3cc(CO)nn3)C2)n1 (stereo unspecified) | 7.346%
COc1ccccc1C1(CNc2snc(Cl)c2C#N)CCOCC1 | -37.68%
CCc1nc2n(n1)CC(NCC(=O)Nc1cc(C(C)(C)C)no1)CC2 (stereo unspecified) | -15.89%
Cc1cc(C(F)(F)F)c2c(C3CCN(S(=O)(=O)N(C)C)CC3)noc2n1 | 6.751%
O=C(C1CCCO1)N1CCCn2c(nnc2Cn2cccn2)C1 (stereo unspecified) | 15.41%
[H][C@@]12C[C@H](C(=O)N3CCOCC3)[C@@]([H])(CN(S(=O)(=O)CC(C)C)C1)O2 | -22.79%
Fc1ccccc1Cc1noc(CN2CCC(N3CCSCC3)CC2)n1 | 17.34%
c1cncc(C[C@@H]2CC[C@H](CN3CCCOCC3)O2)c1 | -4.113%
Cc1n[nH]c(C2CN(CCCOc3cccc(Cl)c3)CCO2)n1 (stereo unspecified) | 1.346%
OCCN1CCN(CC(O)c2ccc(OC(F)(F)F)cc2)CC1 (stereo unspecified) | -19.51%
Clc1ccccc1-c1nnc(CN2CCCC2Cn2cncn2)o1 (stereo unspecified) | -0.1434%
COc1cccc([C@@H](C)n2ccnc2-c2cc3n(n2)CCNC3)c1 | -14.48%
Cc1cc(C(=O)N2CCC(Nc3cccnc3)CC2)c(C)s1 | 22.02%
CCC(C)(CC(=O)O)NC(=O)Cc1ccccc1Br (stereo unspecified) | -3.555%
Cc1ncc(C)c(N2CCCC(CO)(Cc3cccc(Cl)c3)C2)n1 (stereo unspecified) | -21.42%
Cc1cccc(CN2CCCC2c2cccc(Nc3nccs3)n2)c1 (stereo unspecified) | -4.225% and 15.01%
CN(C)[C@@H]1C[C@@H](CO)N(C(=O)Nc2ccc(SC(F)(F)F)cc2)C1 | -16.18%
Cn1cnc2c1CCN(Cc1c(Cl)ccc3cccnc13)C2 | 14.81%
CC(C)NC(=O)C1CCC2(CCNCC2)C1 (stereo unspecified) | 7.793%
Cc1nc2ncccn2c1C(=O)N1CCc2[nH]cnc2C1 | -3.773% and -17.92%
Oc1cc(-c2ccccn2)nc(C2CCN(Cc3ccncc3)CC2)n1 | -25.38%
O=C1COc2ccc(C(=O)N3CCCC(n4ccnc4)C3)cc2N1 (stereo unspecified) | -9.675%
CN(CCCOc1ccccc1)S(=O)(=O)N1CCOCC1 | 5.539%
CCC1CN(C(=O)COc2ccc(NC(C)=O)cc2)CCO1 (stereo unspecified) | -12.35%
COCCN1C[C@@H](C)[C@@]2(COCCN(C(=O)c3cnc(C)cn3)C2)C1.O=C(O)C(F)(F)F | -13.54%
COCC(=O)N1Cc2nccn2CC(CN(C)Cc2cccnc2)C1 (stereo unspecified) | -11.67%
CC(NCCCN1CCCC1=O)c1cc(Br)ccc1O (stereo unspecified) | 6.651%
CN(CC(=O)N1CCCC1c1noc(C2CC2)n1)C1CC1 (stereo unspecified) | -17.24%
Cc1nc(C)n(CC2CN(Cc3cccc4c3OCCO4)CCO2)n1 (stereo unspecified) | 0.9031%
Cc1cccc(-c2noc(CN3CC(n4cc(C)cn4)C3)n2)c1 | 17.6%
CC(O)CN1CCC(=O)N(Cc2ccccc2)Cc2ccccc21 (stereo unspecified) | -5.109%
O=C(O)C(F)(F)F.[H][C@@]12CCN(c3ncccn3)[C@@]1([H])CCN2S(=O)(=O)c1cccs1 | -19.72%
Cn1cccc1C(=O)N1CCn2cc(CN3CCCC3)nc2C1 | -2.343% and -6.665%
Cc1ccc2oc(N3CCN(CC(=O)NC(C)C)CC3)nc2c1 | -16.99%
CCn1cc(SCC(=O)N2CCCC(O)(CO)C2)c2ccccc21 (stereo unspecified) | 3.471%
CC(C(=O)N1CCCC1)S(=O)(=O)Cc1nc(C(C)(C)C)no1 (stereo unspecified) | -0.02843%
CNC(=O)CC1CCN(C(=O)NCC2(c3ccccc3F)CC2)CC1 | -5.567%
CC(C)Oc1cccc(C(=O)C2CCCN(C(=O)c3ncn[nH]3)C2)c1 (stereo unspecified) | 20.8%
CC[C@H](C)Nc1nccc(-c2cnc3sc(C)cn3c2=O)n1 | -18.29%
CCc1nn(-c2cc(Oc3cccc(C)c3)nc(C)n2)c(N)c1C#N | -3.732%
COCc1nc(C(=O)N2CCCC(n3cccn3)C2)cs1 (stereo unspecified) | 12.04%
CCC(CO)Nc1nc(C(F)F)nc2ccccc12 (stereo unspecified) | -2.217%
CC(C)CN1CC2(CCN(C(=O)C(O)c3cccc(Cl)c3)CC2)CC1=O (stereo unspecified) | -21.89%
O=C(Cn1ccnc1)N1CC[C@H](Oc2cccc(F)c2)[C@@H](O)CC1 | -2.835% and 25.85%
COc1ccncc1NC(=O)c1[nH]nc(C(C)C)c1Br | -0.6377%
COc1ncc(C(=O)N2CCC(c3nc(C)n4ccsc34)CC2)cn1 | -18.91%
O=S(=O)(Cc1ccccc1CN1CC[C@H](CO)[C@H](O)C1)c1ccccc1 | 17.99%
Clc1snnc1CN1CCCC1Cn1cccn1 (stereo unspecified) | -2.826%
CCn1nc(CC(C)C)cc1C(=O)NCCCN1CCOCC1 | 10.81%
CN(CC1CCOC1)S(=O)(=O)c1cccc(C(=O)N2CCCCCC2)c1 (stereo unspecified) | 1.507%
Cc1cc(C)n(C2CCN(c3ncnc4sc5c(c34)CCNC5)C2)n1 (stereo unspecified) | 1.562%
CC(C)(C)N1CCN(C(=O)c2cccnc2-n2cncn2)CC1 | 12.76%
CCc1ncc2c(n1)CN(Cc1nnc(C(C)C)o1)CC2 | -3.049%
COc1cccc(-c2n[nH]cc2CNCC2CCS(=O)(=O)C2)c1 (stereo unspecified) | 17.12%

Some entries from above, unchanged:

| structure | effect |
|---|---|
| `CCc1ncncc1C(=O)N1CCCN(Cc2ccc(C)cc2)CC1` | -35.66% |
| `CC(C(=O)N1CCCC1)S(=O)(=O)Cc1nc(C(C)(C)C)no1` (stereo unspecified) | -0.02843% |
| `COCc1nc(C(=O)N2CCCC(n3cccn3)C2)cs1` (stereo unspecified) | 12.04% |
| `O=C(O)C(F)(F)F.[H][C@@]12CCN(c3ncccn3)[C@@]1([H])CCN2S(=O)(=O)c1cccs1` | -19.72% |
| `[H][C@@]12CN(CC(=O)OCC)C[C@]1([H])OCCN2c1ncc(F)cn1` | 2.061% |
| `O=C(O)C(F)(F)F.[H][C@@]12CCN(S(=O)(=O)c3cccs3)C[C@]1([H])[C@@H](CN(C)C)OC2` | -18.77% |
| `Cc1cc(C)n(C2CCN(c3ncnc4sc5c(c34)CCNC5)C2)n1` (stereo unspecified) | 1.562% |
| `COc1cccc([C@@H](C)n2ccnc2-c2cc3n(n2)CCNC3)c1` | -14.48% |
| `CC(C)NC(=O)C1CCC2(CCNCC2)C1` (stereo unspecified) | 7.793% |
| `CC(C)CNc1nccc(-c2cnc3sc(Cl)cn3c2=O)n1` | -19.36% |
| `CC(C)(C)c1cc(NC(=O)CN2CCCC(Cn3cncn3)C2)on1` (stereo unspecified) | -20.16% |

Measurements from “University of Dundee, Small-Polar-MMV Screening Library” (2021), ChEMBL document CHEMBL3988442.